# Measurements: PubChem BioAssay AID483 (Columbia University Molecular Screening Center, 2006)
# This is one part of the list.
# Assay: reduction of polyQ htt aggregates in cells – imaging, exon1htt(103Q)mCFP cells, high-content imaging, primary screen (AID 483);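 note: compound exposure lasted 3 days before fixation; percent of the per-plate median nuclei count of sample wells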
# Conditions: exon1htt(103Q)mCFP cell line, aggregate imaging; measured here: cell count, toxicity; at 2 µM
row,SMILES,nuclei count [%]
1,Cc1nn(-c2ccccc2)c2c1P(=O)(N1CCOCC1)N(C)C(c1ccccc1)=N2 (stereo not given),98.4
2,CCOP1(=S)c2c(C)nn(CCC#N)c2N=C(c2ccccc2F)N1C (stereo not given),69.5
3,Cc1ccc(C)c(NP(C)(=O)Oc2ccccc2)c1 (stereo not given),96.8
4,CP(=S)(Nn1cnnc1)Oc1ccccc1 (stereo not given),105
5,COP1(=S)c2c(C)nn(CCC#N)c2N=C(c2ccc(F)cc2)N1C (stereo not given),99.8
6,O=C(COc1ccccc1)OC1CN2CCC1CC2 (stereo not given),107
7,CP(=O)(Nc1ccccn1)Oc1ccccc1 (stereo not given),64
8,CN(C)CCOC(=O)C(O)(c1ccccc1)C1CCCCC1 (stereo not given),106
9,CP(=O)(Nc1ccc2c(c1)OCCO2)Oc1ccccc1 (stereo not given),104
10,O=P(Nc1nccs1)(c1ccccc1)c1ccccc1,106
